These results are taken from patent US20240279845A1 (ECOLE POLYTECHNIQUE FEDERALE DE LAUSANNE (EPFL), priority 2021, published 2024).

Data set [1] can be described thus: general procedure: Fmoc solid-phase peptide synthesis; resin 5 (PS thiol resin). Particulars: whole synthesis, scale of the general procedure 5 μmol, one disulfide bridge, sequence written open, run 1.
A short description of data set [2]: general procedure: Fmoc solid-phase peptide synthesis; resin 4 (apolar PS resin). Particulars: whole synthesis, scale of the general procedure 5 μmol, one disulfide bridge, sequence written open, run 1.

Take Mpa-Gly-GIn-Trp-Mea: the “crude LC-MS purity” value in data set [1] was determined as 93±1%; in data set [2], 95±4%.
